Measured data: PubChem BioAssay AID1224828 (NIAID, 2016)
Test: 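Knock-downs that increase or decrease LPS-induced p65 nuclear translocation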 (primary screen). Cells: mouse RAW264.7 G9 macrophage reporter cells (GFP-p65, Tnf promoter-mCherry). Reagent: siRNA pool against mouse genes, 100 nM. Timing: 2 days siRNA transfection, then 40 min LPS before fixation. Challenge: LPS (Salmonella minnesota R595) at 10 ng/ml. Read-out: 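Microscopy ratio of nuclear to perinuclear-ring GFP-p65 signal, scaled to the plate median; gene score is the average of two replicate robust z-scores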. Reading the numbers: p65 translocation robust z-score: higher = more nuclear NF-kappaB p65 after LPS than the plate median; nuclear/cytoplasmic p65 ratio: higher = more nuclear NF-kappaB p65. Rule for the call: 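Active if robust z is above 3.3 (negative regulators) or below -1.56, the Tlr4 control median (positive regulators); activity score 50 or more; control wells not called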. Meaning of the calls: active = hit (p65 shift raised or lowered); inactive = no clear change.
The whole screen tested about 17,000 reagents; this is a random part of them. In the full data, 762 (4.5%) got an active call. 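Active calls include both raised and lowered p65 entry, mostly lowered; wells with fewer than 50 cells lack a z-score.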 Raw values are not corrected between plates. A number with no mark means an inactive call. Reagents against one gene are numbered here.

Gene | reagent no. | p65 translocation robust z-score | nuclear/cytoplasmic p65 ratio, rep 1 | nuclear/cytoplasmic p65 ratio, rep 2 | low cell count flag
4933436E20Rik (retired record) | 1 | 1.09 | 1.35 | 1.61 | enough cells to score
Sytl4 | 1 | -0.39 | 1.31 | 1.08 | enough cells to score
Btf3 | 1 | -0.98 | 1.43 | 1.51 | enough cells to score
Matn3 | 1 | -0.04 | 1.48 | 1.3 | enough cells to score
Arih2 | 1 | 0.67 | 1.63 | 1.68 | enough cells to score
Meox2 | 1 | 0.85 | 1.52 | 1.48 | enough cells to score
Vmn1r48 | 1 | – | 0 | 0 | fewer than 50 cells per well; well left out of scoring
Cdk15 | 1 | -0.2 | 1.7 | 1.31 | enough cells to score
Tpp2 | 1 | 0.01 | 1.39 | 1.17 | enough cells to score
Trak2 | 1 | -0.11 | 1.61 | 1.59 | enough cells to score
Ppm1b | 1 | -0.69 | 1.43 | 1.3 | enough cells to score
Abca16 | 1 | -0.31 | 1.49 | 1.71 | enough cells to score
Dido1 | 1 | -0.3 | 1.36 | 1.53 | enough cells to score
Dido1 | 2 | -0.65 | 1.37 | 1.27 | enough cells to score
Prg3 | 1 | -0.65 | 1.4 | 1.33 | enough cells to score
Ccl3 | 1 | – | 1.32 | 1.51 | fewer than 50 cells per well; well left out of scoring
Miox | 1 | 0.83 | 1.81 | 1.68 | enough cells to score
Mast3 | 1 | – | 1.39 | 1.56 | fewer than 50 cells per well; well left out of scoring
Hspa5 | 1 | 1.72 | 1.59 | 1.66 | enough cells to score
Rps15 | 1 | 0.09 | 1.32 | 1.23 | enough cells to score
Gbp2 | 1 | -0.95 | 1.24 | 1.32 | enough cells to score
Ch25h | 1 | -1.5 | 1.36 | 1.55 | enough cells to score
A930018M24Rik | 1 | -0.58 | 1.44 | 1.45 | enough cells to score
4833439L19Rik | 1 | – | 1.42 | 1.4 | fewer than 50 cells per well; well left out of scoring

2 entries from above in another layout.
{"Gene":"4933436E20Rik (retired record)","reagent no.":1,"p65 translocation robust z-score":1.09,"nuclear/cytoplasmic p65 ratio, rep 1":1.35,"nuclear/cytoplasmic p65 ratio, rep 2":1.61,"low cell count flag":"enough cells to score"}
{"Gene":"Sytl4","reagent no.":1,"p65 translocation robust z-score":-0.39,"nuclear/cytoplasmic p65 ratio, rep 1":1.31,"nuclear/cytoplasmic p65 ratio, rep 2":1.08,"low cell count flag":"enough cells to score"}
